Laboratory results reported in PMC10163288.
Some of the results follow.

B1: il2ra_site2_2erj_sap_22_mot_HHH_b1_07562_000000147_0001_41_55_H_._HHH_b1_01646_0001_0000600010_0000001_0_0001 (protein)
chain: DHEEAVRRALELAAKRGNLELQVRLLLLFLERTLGDPEEALERLRELLEKLGDPEAEEVLEELRR
B2: il2ra_site2_3nfp_sap_34_mot_HHH_b1_01350_af2_000000041_0001_40_53_H_._HHH_b1_03122_0001_0000500014_0000001_0_0001 (protein)
chain: SSSSDKEEIEELLKELREALERGDEELFRKILRRVAQLIFELGDHELFAELADLLAKFAHKSSSS
B3: il2ra_site2_2erj_normal_mot_HHH_b1_04294_af2_000000096_0001_1_18_H_._HHH_b1_00002_0001_0000500019_0000001_0 (protein)
chain: SSSSDLEEAVEELEELLEEGDPEKVSKVAWELLRILHEVTDPELLRKAAEVLQEALRFIEKSSSS
B4: il2ra_site1_2b5i_normal_mot_HHH_b2_05082_af2_000000040_0001_1_19_H_._HHH_b1_05573_af2_0001_0000300024_0000001_0_af2pred_dldesign_0_af2pred (protein)
chain: SSSSSSEDEIERLFKEALKLWKEGKKEEAKKLLEEALALAQAANDPKAVAELQRLLELLESSSSS
B5: il2ra_site1_1z92_sap_13_mot_HHH_b2_05238_af2_000000252_0001_38_55_H_._HHH_b1_08154_af2_0001_0000200002_0000001_1_0001_af2pred_0001_af2pred_swapped (protein)
chain: SSSSSRLERWARALVRIAAHLARLSEEQKEELERVAKEAVERGLDPEEIERLLDKVADELASSSS
B6: il2ra_site2_3nfp_sap_22_mot_HHH_b1_06064_af2_000000154_0001_41_55_H_._4a166e40179e6c064b671d174dbdc8c6_0001_af2_0001_0000600026_0000001_0_0001 (protein)
chain: SSSSSDEESEEYIRAALELLKRVKDPEVFESHVEVIRAAIEDLGDEELEEILEELEKRYNSSSSS
B7: il2ra_site1_2b5i_normal_mot_HHH_b1_02271_000000068_0001_1_16_H_._HHH_b2_07932_0001_0000300036_0000001_0_af2pred_dldesign_0_af2pred (protein)
chain: SSSSDLDAEVEKGLEEAERLKKEGKYKEAFEKLEKLYKKVSAADDEEREEKIEKKYKELSSSSSS
B8: il2ra_site2_3nfp_normal_mot_HHH_b1_06797_000000164_0001_24_40_H_._HHH_b2_04507_0001_0000200012_0000001_0 (protein)
chain: SSSSDKQEEYLRVVLALVREAEEAGDEFALRSSLEFALLLAEALNDEEVEKELRELLEELSSSSS
B9: il2ra_site2_2erj_sap_21_mot_HHH_b2_00938_af2_000000099_0001_43_55_H_._HHH_b1_03152_af2_0001_0000100003_0000001_0_0001 (protein)
chain: SSSSLHEAFEIAVEAAAKISRLHREGNDEEAKRVFEEARERLEELGTENAREHLEHLFKALSSSS
B10: il2ra_site2_3nfp_normal_mot_HHH_b2_06150_000000217_0001_39_53_H_._HHH_b1_03322_0001_0000100005_0000001_0 (protein)
chain: SSSSDIEERIEELLEEAKELIENGDPERAQEVLQEATHLAYEIRNSELFMRVAELLYLLRSSSSS
B11: il2ra_site2_3nfp_normal_mot_HHH_b2_07946_000000046_0001_20_36_H_._de103a6a2759fb2eb67fe2c7ae4a7c2b_0001_0001_0000200009_0000001_0_af2pred_0001_af2pred (protein)
chain: SRRLEALKILEELGDPEAAFLLYALVAEVLHEGDPELQRLLEEVLELVEEGDPEEAKRLLEEIDN
B12: il2ra_site2_3nfp_normal_mot_HHH_b2_05281_000000198_0001_39_56_H_._HHH_b1_01561_0001_0000300023_0000001_0 (protein)
chain: SSSSDVEERVEELLEEIRRLIEEGDEEKARRLLREVTELAYENRDSRLFFLVAELAFALFSSSSS
B13: il2ra_site2_3nfp_normal_mot_HHH_b2_06150_000000217_0001_39_53_H_._HHH_b2_08021_af2_0001_0000300025_0000001_0 (protein)
chain: SSSSSSDEEEVEELLEEAKKIEDEREREEVLARASEIAYEARNSELFYEIAEVLFELASSSSSSS
B14: il2ra_site2_3nfp_sap_13_mot_HHH_b2_01406_000000272_0001_41_55_H_._HHH_b2_06395_0002_0000100003_0000001_0_0001 (protein)
chain: SSSSDKSEEYLRVALALVREAEEEGDEEVLRSHIEAALAAAEDQGDEETFEELKKLLEELSSSSS
B15: il2ra_site2_2erj_normal_mot_HHH_b2_05264_af2_000000057_0001_44_57_H_._HHH_b2_03657_af2_0001_0000300015_0000001_1 (protein)
chain: SSSSSDKEYWEKVAELTAEAAHVEDEERVEELLREAEELAEEANNEFLKRYIEYARRAFSSSSSS
B16: il2ra_site2_2erj_sap_21_mot_HHH_b2_01204_af2_000000056_0001_19_34_H_._HHH_b1_04067_0001_0000300007_0000001_1_0001_af2pred_0001_1_af2pred_swapped (protein)
chain: SSSSDELEQVVEELVEELGLDEEAKKILEAAVRNLKESGYNRELAEKWLEHAARNLARARSSSSS
B17: il2ra_site1_3nfp_sap_15_mot_HHH_b1_08274_000000052_0001_43_57_H_._HHH_b2_03144_0001_0000600064_0000001_1_0001 (protein)
chain: SSSSDATEEFVERMVKWFGLDEEAKEILEEVVEELKERGVDWKEAAHILIEAAAKLQNNKSSSSS
B18: il2ra_site1_2b5i_sap_13_mot_HHH_b1_06833_000000178_0001_1_19_H_._HHH_b2_05097_af2_0001_0000100003_0000001_0_0001_af2pred_dldesign_0_af2pred (protein)
chain: SSSSDEAWDRVYDLFQEALRLRRAGKKEEARELLEEALRVAKEGKEEKALAEVEYLLSHLKSSSS
B19: il2ra_site1_3nfp_normal_mot_d9cc8bee132a485d0ac603caa35b40b0_0001_000000230_0001_14_29_H_._09c2afe89fb4cbada1505b3a46965288_0001_af2_0001_0000300018_0000001_1 (protein)
chain: GPRRLMLELALRLGDPKEALRILLEILEEELGDPEEARELLREVIERAARVPPERAEQALEEAEK
B20: il2ra_site2_2erj_sap_14_mot_HHH_b2_03387_af2_000000185_0001_39_52_H_._HHH_b1_04906_af2_0001_0000200008_0000001_0_0001 (protein)
chain: SSSSSRELFETLVRLMQAAAEGDEELFEKLFEEAQRLAEELGSDNAKEAIEQLKRLIEELLSSSS
B21: il2ra_site1_1z92_normal_mot_2f6a785869a907c78cd0d4dd46df121f_0001_000000063_0001_1_13_H_._HEEHE_0610_0001_0000200027_0000001_0_af2pred_0001_af2pred (protein)
chain: DHEERIEEQIERFAELAGVPSVSVEVSNNKITVTVEGDDSAARALRRFVEVAAKDLELEVEVTIN
B22: il2ra_site2_3nfp_normal_mot_HHH_b1_05785_af2_000000002_0001_41_57_H_._HHH_b2_01690_af2_0001_0000800021_0000001_0 (protein)
chain: SSSSNEAEEYLRAALLLLELALEEGNEELFRRHAELIRLLAESLEDEEVEKRVEELQEEFDSSSS
B23: il2ra_site1_1z92_normal_mot_HHH_b2_04375_000000267_0001_42_56_H_._92259d4fafaaaac0c6a0b9836689a3e9_0001_0001_0000200032_0000001_0_af2pred_0001_af2pred_1_swapped (protein)
chain: SEAIRRDIEKAEENGLPPRKVVRAVLRALELFLGDPEEAKRLLEEVLEKLLGDPEEARELVERAE
B24: il2ra_site2_3nfp_sap_18_mot_HHH_b1_07556_000000077_0001_42_55_H_._HHH_b2_07201_0001_0000400029_0000001_0_0001 (protein)
chain: SSSSDEEEEVKRSLEYLKAVAKLHNDEELQEVIEEAERILEEDNDPEKAAEALSEIALKLASSSS
B25: il2ra_site2_2erj_normal_mot_HHH_b1_04810_000000187_0001_1_15_H_._HHH_b2_06197_0001_0000600033_0000001_0 (protein)
chain: SSSSSDAEELVRLLWEALEAHLNGDEERLEELLEELEELAKEVPDEAVAELAEFFLRAARSSSSS
B26: il2ra_site1_1z92_sap_12_mot_HHH_b1_07323_af2_000000200_0001_41_57_H_._HHH_b2_07083_0001_0000300019_0000001_0_0001_af2pred_0001_af2pred (protein)
chain: NLNEEDLEEAVRKNDEELLRKFIELLLKDAGDPHRVKLLLKVLVRRLGLPPEVLERLEELLEELT
B27: il2ra_site1_3nfp_normal_mot_HHH_b1_05720_af2_000000239_0001_1_19_H_._HHH_b2_04752_0001_0000700034_0000001_0 (protein)
chain: SSSSSDVEERVEELLEQAEELNKEGDFKRALEAIEEVFRLIARLGNPELVRLLKEFLQKVSSSSS
B28: il2ra_site2_2erj_sap_15_mot_HHH_b2_03387_af2_000000185_0001_39_52_H_._HHH_b2_00372_0001_0000100005_0000001_0_0001_af2pred_0001_1_af2pred_swapped (protein)
chain: SSSSSEEIEKAVREEAEEAYERGDERLLKALLRLLRRFAERLNDPELEELLKFIEELLEELSSSS
B29: il2ra_site2_2erj_sap_24_mot_35d2dc24e2c4431f89e6f806b163ecf8_0001_af2_000000103_0001_35_49_H_._HHH_b2_07470_0001_0000100003_0000001_0_0001 (protein)
chain: SSSSSEEREELQELAVRLAELAARGNPEEARKVLEEAEKLAKELNDETFERYLRLAKKHLSSSSS
B30: il2ra_site2_2erj_normal_mot_8dc8e935950a1f8e5bdf62a2e89caa87_0001_af2_000000008_0001_1_13_H_._HHH_b1_07843_af2_0001_0000300006_0000001_0_af2pred_0001_1_af2pred_ … (protein)
chain: SSSSDEYEERIEELIREAEEALERGNPEEARHIIAEAIELALENNDDELLKELSELLRRIRSSSS
B31: il2ra_site2_3nfp_normal_mot_HHH_b1_05627_af2_000000038_0001_43_56_H_._HHH_b2_07136_0001_0000900027_0000001_0 (protein)
chain: SSSSDKRERYVEAAIEALRLAIEHNDPETLRSIFEAAEALAEDLGNEELLEEIRELYEEATSSSS
B32: il2ra_site2_2erj_sap_22_mot_HHH_b1_02841_000000003_0001_43_57_H_._HHH_b2_06425_0001_0000300014_0000001_0_0001 (protein)
chain: SSSSDLHRLYELAVRALALLANGNPEEAEEVLREAEELAEKLNSDNAKEHLEILRKRVENSSSSS
B33: il2ra_site1_2b5i_sap_19_mot_HHH_b2_04997_af2_000000138_0001_1_34_H_._HHH_b2_00677_0001_0000300015_0000001_0_0001 (protein)
chain: SSSSDREVDRRLVRFIFRLIWEFNLSAEESRKLSHIAVELMDEGVSEEEIEEILEEVAKESSSSS
B34: il2ra_site2_3nfp_sap_23_mot_HHH_b2_06150_000000217_0001_39_53_H_._HHH_b2_06303_0001_0000300030_0000001_0_0001 (protein)
chain: SSSSSEAEEYLRAALKLLELAIEEGDRFAFESTLRLVELAAKSNNDEEVEERVEELKERFKSSSS
B35: il2ra_site1_3nfp_normal_mot_HHH_b2_02477_af2_000000290_0001_1_16_H_._HHH_b2_04998_af2_0001_0000100002_0000001_0_af2pred_0001_af2pred (protein)
chain: SSSSSSREELEKLIEQANELYENGNPEEAKEVLEKALELAEELNSRAAARFIKAMLRTASSSSSS
B36: il2ra_site1_3nfp_normal_mot_HHH_b1_02435_af2_000000203_0001_40_57_H_._HHH_b1_02974_af2_0001_0000200008_0000001_0_af2pred_0001_1_af2pred_swapped (protein)
chain: SSSSEEEIRRALEEALELAFQGNFEEAEKVLREAEEIAKEINDEQKLKRIQFDLRSLELAKSSSS
B37: il2ra_site1_3nfp_sap_14_mot_HHH_b2_05809_000000010_0001_1_20_H_._HHH_b1_03964_af2_0001_0000100001_0000001_0_0001_af2pred_0001_af2pred (protein)
chain: SSSSDKRRRALELTREIKRLSREGDEEEARRLLEELEELARELGDPVLKILVKRLKEHIDSSSSS

Each binder was assayed against il2ra, P01589 (assay: yeast display titration).

Apparent Kd, inactive:
B1 no binding seen
B2 no binding seen
B3 no binding seen
B4 no binding seen
B5 no binding seen
B6 no binding seen
B7 no binding seen
B8 no binding seen
B9 no binding seen
B10 no binding seen
B11 no binding seen
B12 no binding seen
B13 no binding seen
B14 no binding seen
B15 no binding seen
B16 no binding seen
B17 no binding seen
B18 no binding seen
B19 no binding seen
B20 no binding seen
B21 no binding seen
B22 no binding seen
B23 no binding seen
B24 no binding seen
B25 no binding seen
B26 no binding seen
B27 no binding seen
B28 no binding seen
B29 no binding seen
B30 no binding seen
B31 no binding seen
B32 no binding seen
B33 no binding seen
B34 no binding seen
B35 no binding seen
B36 > 1.4 µM
B37 no binding seen

Retrieved one by one from the entries so far (2):
Apparent Kd, inactive:
B25 no binding seen
B6 no binding seen
